This note sets out measurements from the supplement of paper PMC12067093, “Discovery and optimisation of a covalent ligand for TRIM25 and its application to targeted protein ubiquitination” (Chemical Science, 2025).

The chains behind the UniProt entries cited, without tags or fusion partners. Where a name states a change or a piece, a line headed by the entry shows the natural chain unless it says otherwise.
UniProt P13489: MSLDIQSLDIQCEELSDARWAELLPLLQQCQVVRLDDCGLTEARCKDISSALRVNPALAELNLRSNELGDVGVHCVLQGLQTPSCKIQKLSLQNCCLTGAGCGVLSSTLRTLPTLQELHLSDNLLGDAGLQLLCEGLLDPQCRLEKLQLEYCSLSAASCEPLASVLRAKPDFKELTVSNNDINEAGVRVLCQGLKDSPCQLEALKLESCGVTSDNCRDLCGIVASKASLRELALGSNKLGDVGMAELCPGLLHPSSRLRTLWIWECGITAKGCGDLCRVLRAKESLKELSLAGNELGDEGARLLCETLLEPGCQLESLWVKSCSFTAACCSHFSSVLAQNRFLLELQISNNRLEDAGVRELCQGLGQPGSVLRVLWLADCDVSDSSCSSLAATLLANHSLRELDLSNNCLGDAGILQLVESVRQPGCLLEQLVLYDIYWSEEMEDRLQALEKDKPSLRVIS
UniProt O60942: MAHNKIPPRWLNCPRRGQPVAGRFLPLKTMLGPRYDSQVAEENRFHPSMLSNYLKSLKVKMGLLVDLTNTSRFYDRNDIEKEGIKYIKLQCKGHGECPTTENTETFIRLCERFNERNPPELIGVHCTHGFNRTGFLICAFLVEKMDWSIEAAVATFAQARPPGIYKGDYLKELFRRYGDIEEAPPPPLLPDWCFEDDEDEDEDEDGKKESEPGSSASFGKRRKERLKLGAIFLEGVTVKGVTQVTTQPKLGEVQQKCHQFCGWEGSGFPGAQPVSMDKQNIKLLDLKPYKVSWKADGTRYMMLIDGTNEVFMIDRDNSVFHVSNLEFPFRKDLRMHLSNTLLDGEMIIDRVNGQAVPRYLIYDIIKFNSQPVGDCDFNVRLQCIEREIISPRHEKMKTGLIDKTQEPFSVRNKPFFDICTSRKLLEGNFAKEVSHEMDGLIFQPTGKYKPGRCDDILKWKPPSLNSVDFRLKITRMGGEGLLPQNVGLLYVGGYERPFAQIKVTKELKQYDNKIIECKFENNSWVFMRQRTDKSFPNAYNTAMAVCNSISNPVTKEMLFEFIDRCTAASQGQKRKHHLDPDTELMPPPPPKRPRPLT
UniProt Q63HN8: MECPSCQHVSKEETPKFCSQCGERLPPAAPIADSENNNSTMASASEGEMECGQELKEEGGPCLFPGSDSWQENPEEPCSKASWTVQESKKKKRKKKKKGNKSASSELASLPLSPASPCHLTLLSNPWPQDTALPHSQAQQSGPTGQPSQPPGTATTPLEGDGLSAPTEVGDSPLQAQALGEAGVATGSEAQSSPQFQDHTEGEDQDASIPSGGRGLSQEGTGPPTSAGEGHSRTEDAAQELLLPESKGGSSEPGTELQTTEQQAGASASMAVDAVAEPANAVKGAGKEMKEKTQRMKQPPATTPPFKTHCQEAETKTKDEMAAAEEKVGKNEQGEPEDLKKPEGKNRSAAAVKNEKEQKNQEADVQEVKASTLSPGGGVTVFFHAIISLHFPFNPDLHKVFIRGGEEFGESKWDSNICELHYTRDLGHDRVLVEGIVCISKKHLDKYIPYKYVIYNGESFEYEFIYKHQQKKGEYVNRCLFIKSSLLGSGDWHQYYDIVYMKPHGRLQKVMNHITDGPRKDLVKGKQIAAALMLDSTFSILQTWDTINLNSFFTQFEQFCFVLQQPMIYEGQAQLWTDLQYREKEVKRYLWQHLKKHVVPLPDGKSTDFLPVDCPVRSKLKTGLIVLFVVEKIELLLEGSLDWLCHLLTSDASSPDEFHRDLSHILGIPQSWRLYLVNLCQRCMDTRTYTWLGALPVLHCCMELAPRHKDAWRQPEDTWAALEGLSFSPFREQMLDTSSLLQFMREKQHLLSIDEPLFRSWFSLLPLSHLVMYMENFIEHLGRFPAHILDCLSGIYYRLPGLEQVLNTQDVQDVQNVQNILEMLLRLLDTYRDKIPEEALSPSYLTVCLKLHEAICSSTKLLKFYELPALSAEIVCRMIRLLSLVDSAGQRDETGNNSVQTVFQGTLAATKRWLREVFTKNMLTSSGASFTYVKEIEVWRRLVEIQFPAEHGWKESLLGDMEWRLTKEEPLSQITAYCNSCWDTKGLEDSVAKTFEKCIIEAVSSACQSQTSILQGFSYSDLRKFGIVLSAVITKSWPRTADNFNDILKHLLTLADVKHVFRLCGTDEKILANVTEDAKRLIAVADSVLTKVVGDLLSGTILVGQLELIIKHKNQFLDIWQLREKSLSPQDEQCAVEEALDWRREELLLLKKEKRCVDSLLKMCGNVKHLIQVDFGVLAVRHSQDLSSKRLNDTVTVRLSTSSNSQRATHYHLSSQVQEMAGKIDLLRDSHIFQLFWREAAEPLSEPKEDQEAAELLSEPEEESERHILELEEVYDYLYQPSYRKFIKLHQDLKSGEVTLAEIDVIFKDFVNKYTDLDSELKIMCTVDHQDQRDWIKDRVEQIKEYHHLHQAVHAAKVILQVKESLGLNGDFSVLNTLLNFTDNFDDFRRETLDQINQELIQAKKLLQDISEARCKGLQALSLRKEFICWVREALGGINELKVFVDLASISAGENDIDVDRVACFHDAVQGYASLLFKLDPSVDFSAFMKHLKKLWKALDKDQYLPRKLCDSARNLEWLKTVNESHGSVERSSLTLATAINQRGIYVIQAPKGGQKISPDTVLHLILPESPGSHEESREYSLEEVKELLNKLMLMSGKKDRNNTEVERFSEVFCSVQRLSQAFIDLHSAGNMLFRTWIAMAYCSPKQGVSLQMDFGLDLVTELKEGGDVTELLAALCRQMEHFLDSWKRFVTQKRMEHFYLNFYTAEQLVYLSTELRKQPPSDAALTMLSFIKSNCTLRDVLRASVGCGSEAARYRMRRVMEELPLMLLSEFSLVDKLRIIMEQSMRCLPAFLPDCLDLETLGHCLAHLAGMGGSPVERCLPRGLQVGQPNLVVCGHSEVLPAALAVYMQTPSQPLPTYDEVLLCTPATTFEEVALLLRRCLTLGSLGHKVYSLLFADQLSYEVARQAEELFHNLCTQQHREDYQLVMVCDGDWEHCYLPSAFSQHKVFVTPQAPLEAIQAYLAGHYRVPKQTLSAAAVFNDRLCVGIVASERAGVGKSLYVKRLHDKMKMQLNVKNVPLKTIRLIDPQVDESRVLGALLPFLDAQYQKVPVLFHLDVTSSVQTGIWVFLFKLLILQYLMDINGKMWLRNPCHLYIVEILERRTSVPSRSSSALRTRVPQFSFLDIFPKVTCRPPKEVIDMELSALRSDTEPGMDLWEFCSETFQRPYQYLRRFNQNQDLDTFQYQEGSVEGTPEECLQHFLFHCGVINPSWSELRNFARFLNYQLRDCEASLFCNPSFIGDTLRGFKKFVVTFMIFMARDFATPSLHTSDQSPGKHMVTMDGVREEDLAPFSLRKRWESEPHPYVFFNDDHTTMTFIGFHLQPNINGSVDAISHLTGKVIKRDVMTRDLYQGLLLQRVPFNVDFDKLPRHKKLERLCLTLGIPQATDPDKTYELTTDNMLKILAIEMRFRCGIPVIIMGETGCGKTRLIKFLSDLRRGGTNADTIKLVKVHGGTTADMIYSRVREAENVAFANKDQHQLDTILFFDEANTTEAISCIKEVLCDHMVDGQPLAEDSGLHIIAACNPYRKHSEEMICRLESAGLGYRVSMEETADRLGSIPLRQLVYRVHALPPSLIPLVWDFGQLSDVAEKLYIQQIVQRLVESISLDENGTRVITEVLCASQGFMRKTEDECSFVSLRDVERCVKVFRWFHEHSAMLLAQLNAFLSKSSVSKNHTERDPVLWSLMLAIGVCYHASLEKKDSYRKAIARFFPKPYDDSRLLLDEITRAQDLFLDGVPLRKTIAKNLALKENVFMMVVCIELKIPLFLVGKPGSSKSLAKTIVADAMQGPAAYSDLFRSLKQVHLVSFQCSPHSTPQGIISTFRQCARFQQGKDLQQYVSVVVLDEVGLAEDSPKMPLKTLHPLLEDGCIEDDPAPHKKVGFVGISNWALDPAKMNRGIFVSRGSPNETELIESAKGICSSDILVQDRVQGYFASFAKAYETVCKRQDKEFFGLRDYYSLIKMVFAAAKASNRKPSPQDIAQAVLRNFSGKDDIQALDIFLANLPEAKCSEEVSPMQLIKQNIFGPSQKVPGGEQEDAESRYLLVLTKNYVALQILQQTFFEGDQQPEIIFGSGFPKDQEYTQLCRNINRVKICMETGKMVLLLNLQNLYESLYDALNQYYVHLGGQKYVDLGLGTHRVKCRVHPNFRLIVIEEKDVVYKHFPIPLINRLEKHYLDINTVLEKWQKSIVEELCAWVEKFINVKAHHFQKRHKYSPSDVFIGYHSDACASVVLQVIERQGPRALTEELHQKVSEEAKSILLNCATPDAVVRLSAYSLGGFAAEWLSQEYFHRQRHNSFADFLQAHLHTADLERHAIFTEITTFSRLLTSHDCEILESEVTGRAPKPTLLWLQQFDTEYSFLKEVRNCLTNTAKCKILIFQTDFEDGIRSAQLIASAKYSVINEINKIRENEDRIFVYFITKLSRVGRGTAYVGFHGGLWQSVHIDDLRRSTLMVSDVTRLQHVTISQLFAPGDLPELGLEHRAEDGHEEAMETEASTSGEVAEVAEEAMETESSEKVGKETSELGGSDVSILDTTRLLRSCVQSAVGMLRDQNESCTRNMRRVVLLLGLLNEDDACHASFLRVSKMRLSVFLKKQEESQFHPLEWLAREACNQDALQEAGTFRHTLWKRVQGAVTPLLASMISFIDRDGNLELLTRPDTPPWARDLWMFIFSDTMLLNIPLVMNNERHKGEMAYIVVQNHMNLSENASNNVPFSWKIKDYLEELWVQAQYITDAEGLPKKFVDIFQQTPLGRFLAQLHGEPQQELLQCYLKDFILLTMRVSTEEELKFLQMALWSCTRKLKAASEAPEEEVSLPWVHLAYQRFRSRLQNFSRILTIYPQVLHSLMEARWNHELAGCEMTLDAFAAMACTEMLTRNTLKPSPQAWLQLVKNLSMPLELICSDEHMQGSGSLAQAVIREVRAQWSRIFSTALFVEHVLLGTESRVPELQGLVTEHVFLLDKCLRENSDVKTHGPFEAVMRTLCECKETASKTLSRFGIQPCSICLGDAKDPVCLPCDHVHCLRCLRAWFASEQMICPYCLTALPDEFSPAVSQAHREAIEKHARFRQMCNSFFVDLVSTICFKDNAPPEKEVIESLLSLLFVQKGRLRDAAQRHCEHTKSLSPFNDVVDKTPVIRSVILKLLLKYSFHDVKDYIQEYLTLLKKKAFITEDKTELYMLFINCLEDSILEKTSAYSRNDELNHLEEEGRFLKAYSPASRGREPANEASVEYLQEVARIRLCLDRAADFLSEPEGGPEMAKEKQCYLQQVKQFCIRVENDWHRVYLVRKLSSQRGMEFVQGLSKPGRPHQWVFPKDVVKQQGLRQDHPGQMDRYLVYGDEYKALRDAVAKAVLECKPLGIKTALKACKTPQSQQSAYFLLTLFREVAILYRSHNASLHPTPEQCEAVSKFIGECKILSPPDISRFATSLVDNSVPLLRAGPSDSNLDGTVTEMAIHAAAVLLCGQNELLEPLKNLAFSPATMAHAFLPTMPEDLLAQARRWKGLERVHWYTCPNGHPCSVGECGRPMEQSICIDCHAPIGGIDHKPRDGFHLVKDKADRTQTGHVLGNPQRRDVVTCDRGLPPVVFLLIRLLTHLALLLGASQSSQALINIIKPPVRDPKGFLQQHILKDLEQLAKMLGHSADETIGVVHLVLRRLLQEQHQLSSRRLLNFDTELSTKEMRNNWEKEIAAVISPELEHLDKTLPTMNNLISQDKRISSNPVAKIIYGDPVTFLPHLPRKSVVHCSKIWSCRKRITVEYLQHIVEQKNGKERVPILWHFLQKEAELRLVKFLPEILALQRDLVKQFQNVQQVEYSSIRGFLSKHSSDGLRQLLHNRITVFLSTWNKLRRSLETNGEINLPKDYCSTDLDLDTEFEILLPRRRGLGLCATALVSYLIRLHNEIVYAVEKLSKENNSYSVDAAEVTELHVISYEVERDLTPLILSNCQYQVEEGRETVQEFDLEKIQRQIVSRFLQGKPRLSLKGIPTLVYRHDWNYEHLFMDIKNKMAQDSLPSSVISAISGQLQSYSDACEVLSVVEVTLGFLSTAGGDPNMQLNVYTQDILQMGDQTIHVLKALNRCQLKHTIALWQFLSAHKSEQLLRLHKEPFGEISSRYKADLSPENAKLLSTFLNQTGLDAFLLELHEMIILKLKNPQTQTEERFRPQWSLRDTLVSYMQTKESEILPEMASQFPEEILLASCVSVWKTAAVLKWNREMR
UniProt Q9H4P4: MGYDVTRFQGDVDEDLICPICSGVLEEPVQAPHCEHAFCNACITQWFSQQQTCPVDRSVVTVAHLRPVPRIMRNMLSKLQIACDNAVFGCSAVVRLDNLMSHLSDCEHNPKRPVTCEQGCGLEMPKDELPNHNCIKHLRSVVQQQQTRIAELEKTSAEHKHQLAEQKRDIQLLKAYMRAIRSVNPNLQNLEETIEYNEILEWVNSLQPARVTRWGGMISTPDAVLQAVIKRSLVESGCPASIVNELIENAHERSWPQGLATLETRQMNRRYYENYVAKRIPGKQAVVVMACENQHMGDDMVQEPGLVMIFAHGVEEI

Some of the results follow.
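Further: competitive chemoproteomic profiling in live THP-1 cells with an iodoacetamide desthiobiotin (IA-DTB) probe, comparing probe-labelled peptide intensities in compound-treated cells against DMSO-treated controls.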

Compound in this experiment: CC1Cc2ccccc2N1C(=O)C1CCCN(C1)C(=O)CCl (mixture of isomers) [TRIM25 ligand 11 (diastereomer mixture)]
As to the kind of experiment: probe-labelled cysteine peptide fold change vs DMSO (competition) (log2 fold change); higher = less target engagement (more negative = stronger competition). The conditions noted are these: 50 µM; THP-1; incubation time: 4 h.
Regarding “RPAP3_Q9H6T3_190_KFAVAESDCNLAVALNR (UniProt Q9H6T3)”, the “probe-labelled cysteine peptide fold change” value is 0.0664.

For “RNH1_P13489_220_DLCGIVASK (UniProt P13489)”, the “probe-labelled cysteine peptide fold change” value is -0.0657.

In the case of “RNH1_P13489_209_LESCGVTSDNCR (UniProt P13489)”, the “probe-labelled cysteine peptide fold change” value is -0.0643.

With “RPL8_P62917_90_TELFIAAEGIHTGQFVYCGK (UniProt P62917)”, the “probe-labelled cysteine peptide fold change” value was -0.061.

Consider “RNGTT_O60942_126_NPPELIGVHCTHGFNR (UniProt O60942)”, for which the “probe-labelled cysteine peptide fold change” value was determined as 0.142.

Regarding “RPA1_P27694_476_ENCMYQACPTQDCNK (UniProt P27694)”, the “probe-labelled cysteine peptide fold change” value is -0.0938.

Regarding “RNGTT_O60942_375_FNSQPVGDCDFNVR (UniProt O60942)”, the “probe-labelled cysteine peptide fold change” value was -0.169.

As to “RNF213_Q63HN8_3979_TLCECK (UniProt Q63HN8)”, the “probe-labelled cysteine peptide fold change” value was found to be 0.0197.

Turning to “RNGTT_O60942_261_CHQFCGWEGSGFPGAQPVSMDK (UniProt O60942)”, the “probe-labelled cysteine peptide fold change” value is -0.0982.

Take “RPL17_P18621_144_INPYMSSPCHIEMILTEK (UniProt P18621)”: the “probe-labelled cysteine peptide fold change” value was -0.49.

“RNF220_Q5VTB9_359_EGSCMAEDDAVDIEHENNNRFEEYEWCGQK (UniProt Q5VTB9)”: the “probe-labelled cysteine peptide fold change” value is -0.409.

Turning to “RNPEP_Q9H4A4_130_ERPGSEEPPAEPVSFYTQPFSHYGQALCVSFPQPCR (UniProt Q9H4A4)”, the “probe-labelled cysteine peptide fold change” value turned out to be 0.0341.

“RNF20_Q5VTR2_960_CNAAFGANDFHR (UniProt Q5VTR2)”: the “probe-labelled cysteine peptide fold change” value worked out at 0.046.

As to “RPAIN_Q86UA6_187_ACLEGSINEHSAHCPHTPEFSVTGGTEEK (UniProt Q86UA6)”, the “probe-labelled cysteine peptide fold change” value is 0.0792.

Take “RNH1_P13489_159_LQLEYCSLSAASCEPLASVLR (UniProt P13489)”: the “probe-labelled cysteine peptide fold change” value is -0.112.

On to “RNF213_Q63HN8_3609_EACNQDALQEAGTFR (UniProt Q63HN8)”, for which the “probe-labelled cysteine peptide fold change” value was found to be 0.000657.

As for “RPL7A_P62424_199_KTCTTVAFTQVNSEDK (UniProt P62424)”, the “probe-labelled cysteine peptide fold change” value was -0.153.

On to “RNH1_P13489_409_ELDLSNNCLGDAGILQLVESVR (UniProt P13489)”, for which the “probe-labelled cysteine peptide fold change” value came to 0.0415.

In the case of “RPL30_P62888_92_VCTLAIIDPGDSDIIR (UniProt P62888)”, the “probe-labelled cysteine peptide fold change” value was determined as 0.066.

For the target “ROCK1_Q13464_1242+1245_GHEFIPTLYHFPANCDACAK (UniProt Q13464)”, the “probe-labelled cysteine peptide fold change” value was determined as 0.0552.

Turning to “RNF220_Q5VTB9_382_GSGFIMCSGK (UniProt Q5VTB9)”, the “probe-labelled cysteine peptide fold change” value is -0.492.

In the case of “ROCK2_O75116_1315_EEIIAPCK (UniProt O75116)”, the “probe-labelled cysteine peptide fold change” value was -0.0857.

As for “RNF41_Q9H4P4_238_SLVESGCPASIVNELIENAHER (UniProt Q9H4P4)”, the “probe-labelled cysteine peptide fold change” value worked out at 0.126.

As for “RNPEP_Q9H4A4_85_LDSHPCLEVTAAALR (UniProt Q9H4A4)”, the “probe-labelled cysteine peptide fold change” value was -0.0588.

With “RPL5_P46777_62_DIICQIAYAR (UniProt P46777)”, the “probe-labelled cysteine peptide fold change” value came to 0.219.

Turning to “RNPEP_Q9H4A4_254_VWAEPCLIDAAK (UniProt Q9H4A4)”, the “probe-labelled cysteine peptide fold change” value worked out at 0.18.

As for RPL37_P61927_19_THTLCR (UniProt P61927), the “probe-labelled cysteine peptide fold change” value is 0.0101.

As to “RPL10_P27635_49_AKVDEFPLCGHMVSDEYEQLSSEALEAAR (UniProt P27635)”, the “probe-labelled cysteine peptide fold change” value is -0.368.

Regarding “RNGTT_O60942_453_CDDILK (UniProt O60942)”, the “probe-labelled cysteine peptide fold change” value was -0.155.

Take “RNF41_Q9H4P4_134_DELPNHNCIK (UniProt Q9H4P4)”: the “probe-labelled cysteine peptide fold change” value stood at 0.172.

As to “RPA3_P35244_26_INAGMLAQFIDKPVCFVGR (UniProt P35244)”, the “probe-labelled cysteine peptide fold change” value is -0.0659.

In the case of “RPL37A_P61513_60_RAVGIWHCGSCMK (UniProt P61513)”, the “probe-labelled cysteine peptide fold change” value is -0.218.

Regarding “RPF2_Q9H7B2_135_CPEGTKPMLIFAGDDFDVTEDYRR (UniProt Q9H7B2)”, the “probe-labelled cysteine peptide fold change” value is -0.181.

As to “RPP30_P78346_225_AAVSTNCR (UniProt P78346)”, the “probe-labelled cysteine peptide fold change” value was 0.0901.

Regarding “RPL24_P83731_6_VELCSFSGYK (UniProt P83731)”, the “probe-labelled cysteine peptide fold change” value was -0.0538.

With “RNF14_Q9UBS8_265_DGQVQCLNCPEPK (UniProt Q9UBS8)”, the “probe-labelled cysteine peptide fold change” value is 0.21.

Regarding “RPL37A_P61513_57_AVGIWHCGSCMK (UniProt P61513)”, the “probe-labelled cysteine peptide fold change” value was determined as 0.0463.
